For experiment [1], the target named is T1, EMC3 (endogenous, mouse cortical homogenate) (mouse (endogenous in cortex of C57BL/6J mice)) (UniProt Q99KI3).
T1 sequence: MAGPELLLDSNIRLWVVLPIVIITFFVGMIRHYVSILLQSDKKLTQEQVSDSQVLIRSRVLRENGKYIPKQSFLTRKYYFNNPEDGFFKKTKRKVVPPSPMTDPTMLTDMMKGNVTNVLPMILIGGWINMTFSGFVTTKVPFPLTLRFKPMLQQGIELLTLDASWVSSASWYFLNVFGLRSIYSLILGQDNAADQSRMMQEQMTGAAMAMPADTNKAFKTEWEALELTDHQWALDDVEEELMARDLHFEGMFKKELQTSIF
The experiment is described as follows: co-IP; mouse cortical homogenates from C57BL/6J mice of 8-10 weeks (25 mM Tris-HCl pH 7.5, 150 mM NaCl, 1% NP-40, 0.5% sodium deoxycholate, 0.1% SDS); endogenous proteins; western blot. A general note: In western blotting, separated proteins are transferred to a membrane and probed.

Sequences of proteins named here, by UniProt entry; tags and fusion partners are left off. Residues count along the entry.
UniProt P62813, residues 28-455: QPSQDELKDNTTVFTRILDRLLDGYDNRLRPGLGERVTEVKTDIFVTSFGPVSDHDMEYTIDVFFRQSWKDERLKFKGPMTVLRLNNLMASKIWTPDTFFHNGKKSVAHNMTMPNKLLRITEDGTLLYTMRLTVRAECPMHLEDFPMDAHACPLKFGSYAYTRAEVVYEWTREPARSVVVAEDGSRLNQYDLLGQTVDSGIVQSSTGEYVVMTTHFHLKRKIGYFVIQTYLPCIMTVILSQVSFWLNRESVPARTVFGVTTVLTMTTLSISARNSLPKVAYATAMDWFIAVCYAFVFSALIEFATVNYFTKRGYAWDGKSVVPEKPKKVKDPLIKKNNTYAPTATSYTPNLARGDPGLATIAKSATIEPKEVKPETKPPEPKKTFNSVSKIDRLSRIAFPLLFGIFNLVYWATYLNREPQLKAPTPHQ
UniProt P49582, residues 23-502: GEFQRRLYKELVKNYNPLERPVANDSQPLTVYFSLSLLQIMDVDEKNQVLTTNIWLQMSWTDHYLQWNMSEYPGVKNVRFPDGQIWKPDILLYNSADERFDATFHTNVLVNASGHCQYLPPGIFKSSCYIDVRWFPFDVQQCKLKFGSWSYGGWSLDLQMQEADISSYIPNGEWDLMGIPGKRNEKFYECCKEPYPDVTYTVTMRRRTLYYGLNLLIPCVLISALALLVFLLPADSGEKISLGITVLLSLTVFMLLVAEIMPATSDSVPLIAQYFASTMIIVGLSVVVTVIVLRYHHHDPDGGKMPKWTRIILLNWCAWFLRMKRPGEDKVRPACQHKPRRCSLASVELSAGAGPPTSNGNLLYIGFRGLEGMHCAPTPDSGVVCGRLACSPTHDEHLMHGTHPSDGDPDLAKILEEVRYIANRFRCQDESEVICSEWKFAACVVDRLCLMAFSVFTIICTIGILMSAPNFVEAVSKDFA
UniProt Q00960, residues 27-1482: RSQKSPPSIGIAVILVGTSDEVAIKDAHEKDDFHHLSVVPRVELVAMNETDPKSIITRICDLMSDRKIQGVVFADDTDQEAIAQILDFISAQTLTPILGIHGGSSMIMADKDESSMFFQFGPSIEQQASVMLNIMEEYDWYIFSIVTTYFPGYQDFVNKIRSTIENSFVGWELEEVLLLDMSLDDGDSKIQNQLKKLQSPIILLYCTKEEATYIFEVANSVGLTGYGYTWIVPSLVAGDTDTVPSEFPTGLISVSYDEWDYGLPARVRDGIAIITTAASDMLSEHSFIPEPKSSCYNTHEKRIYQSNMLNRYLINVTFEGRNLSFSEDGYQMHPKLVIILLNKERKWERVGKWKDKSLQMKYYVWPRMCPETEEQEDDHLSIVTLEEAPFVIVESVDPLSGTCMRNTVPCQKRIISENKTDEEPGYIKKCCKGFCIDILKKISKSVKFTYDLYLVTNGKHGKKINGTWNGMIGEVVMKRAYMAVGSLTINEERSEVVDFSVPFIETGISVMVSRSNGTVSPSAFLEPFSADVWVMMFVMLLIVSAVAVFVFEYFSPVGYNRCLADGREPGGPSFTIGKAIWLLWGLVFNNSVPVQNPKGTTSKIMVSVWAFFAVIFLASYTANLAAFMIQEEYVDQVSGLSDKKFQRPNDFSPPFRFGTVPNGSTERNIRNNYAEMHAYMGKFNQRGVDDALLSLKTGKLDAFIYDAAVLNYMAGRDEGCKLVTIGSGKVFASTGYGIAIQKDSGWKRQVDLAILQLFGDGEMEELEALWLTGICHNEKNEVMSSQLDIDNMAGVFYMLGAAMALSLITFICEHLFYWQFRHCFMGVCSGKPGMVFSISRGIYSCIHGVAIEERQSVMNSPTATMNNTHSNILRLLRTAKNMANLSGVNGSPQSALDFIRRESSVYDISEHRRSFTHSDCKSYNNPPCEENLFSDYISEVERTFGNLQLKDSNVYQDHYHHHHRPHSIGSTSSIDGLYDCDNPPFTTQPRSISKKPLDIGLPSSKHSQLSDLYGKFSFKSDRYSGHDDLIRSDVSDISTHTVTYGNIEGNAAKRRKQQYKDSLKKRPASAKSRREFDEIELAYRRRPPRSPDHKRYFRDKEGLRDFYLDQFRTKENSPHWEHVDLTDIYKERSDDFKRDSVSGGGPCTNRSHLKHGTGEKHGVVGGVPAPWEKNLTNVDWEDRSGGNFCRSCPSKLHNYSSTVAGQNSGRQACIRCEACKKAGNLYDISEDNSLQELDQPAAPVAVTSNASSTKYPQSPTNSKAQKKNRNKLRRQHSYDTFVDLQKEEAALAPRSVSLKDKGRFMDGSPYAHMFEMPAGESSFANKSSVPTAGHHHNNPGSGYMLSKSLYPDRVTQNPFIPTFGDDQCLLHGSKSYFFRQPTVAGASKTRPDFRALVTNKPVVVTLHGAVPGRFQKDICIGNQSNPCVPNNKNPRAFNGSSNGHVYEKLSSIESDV
UniProt P46462: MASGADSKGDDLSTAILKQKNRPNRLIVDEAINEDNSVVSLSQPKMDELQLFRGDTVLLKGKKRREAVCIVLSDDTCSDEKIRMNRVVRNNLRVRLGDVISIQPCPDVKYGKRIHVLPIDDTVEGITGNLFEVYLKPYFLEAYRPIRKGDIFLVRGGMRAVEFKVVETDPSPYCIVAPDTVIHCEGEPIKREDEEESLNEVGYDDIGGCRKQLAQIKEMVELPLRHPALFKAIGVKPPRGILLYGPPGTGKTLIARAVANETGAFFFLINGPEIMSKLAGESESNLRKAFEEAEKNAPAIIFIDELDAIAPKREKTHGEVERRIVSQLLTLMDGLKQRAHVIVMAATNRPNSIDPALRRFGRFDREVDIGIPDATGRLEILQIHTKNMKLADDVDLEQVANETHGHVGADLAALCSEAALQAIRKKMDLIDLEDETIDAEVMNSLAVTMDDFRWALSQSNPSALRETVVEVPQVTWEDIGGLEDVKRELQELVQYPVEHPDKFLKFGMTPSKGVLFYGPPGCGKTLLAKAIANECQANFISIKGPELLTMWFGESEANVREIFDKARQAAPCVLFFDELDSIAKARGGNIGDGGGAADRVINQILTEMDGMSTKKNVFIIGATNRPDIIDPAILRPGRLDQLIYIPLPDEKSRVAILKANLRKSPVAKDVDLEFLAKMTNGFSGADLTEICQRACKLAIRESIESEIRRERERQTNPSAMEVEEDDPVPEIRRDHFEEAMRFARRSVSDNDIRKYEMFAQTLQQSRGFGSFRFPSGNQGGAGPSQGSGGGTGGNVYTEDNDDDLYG
UniProt Q05941, residues 23-502: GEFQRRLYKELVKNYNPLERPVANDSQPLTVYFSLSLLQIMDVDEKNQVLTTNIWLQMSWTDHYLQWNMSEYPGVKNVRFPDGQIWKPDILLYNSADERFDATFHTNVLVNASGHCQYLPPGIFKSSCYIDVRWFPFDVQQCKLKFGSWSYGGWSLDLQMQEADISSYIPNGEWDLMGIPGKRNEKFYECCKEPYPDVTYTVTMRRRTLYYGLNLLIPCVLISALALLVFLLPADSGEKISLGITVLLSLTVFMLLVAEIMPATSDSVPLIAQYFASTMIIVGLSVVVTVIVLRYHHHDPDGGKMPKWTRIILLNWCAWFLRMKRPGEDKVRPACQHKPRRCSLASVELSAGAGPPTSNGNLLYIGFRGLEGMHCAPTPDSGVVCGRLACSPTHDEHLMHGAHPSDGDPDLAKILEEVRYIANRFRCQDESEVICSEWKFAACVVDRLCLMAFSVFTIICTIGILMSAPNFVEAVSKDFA
UniProt Q66HD0, residues 22-804: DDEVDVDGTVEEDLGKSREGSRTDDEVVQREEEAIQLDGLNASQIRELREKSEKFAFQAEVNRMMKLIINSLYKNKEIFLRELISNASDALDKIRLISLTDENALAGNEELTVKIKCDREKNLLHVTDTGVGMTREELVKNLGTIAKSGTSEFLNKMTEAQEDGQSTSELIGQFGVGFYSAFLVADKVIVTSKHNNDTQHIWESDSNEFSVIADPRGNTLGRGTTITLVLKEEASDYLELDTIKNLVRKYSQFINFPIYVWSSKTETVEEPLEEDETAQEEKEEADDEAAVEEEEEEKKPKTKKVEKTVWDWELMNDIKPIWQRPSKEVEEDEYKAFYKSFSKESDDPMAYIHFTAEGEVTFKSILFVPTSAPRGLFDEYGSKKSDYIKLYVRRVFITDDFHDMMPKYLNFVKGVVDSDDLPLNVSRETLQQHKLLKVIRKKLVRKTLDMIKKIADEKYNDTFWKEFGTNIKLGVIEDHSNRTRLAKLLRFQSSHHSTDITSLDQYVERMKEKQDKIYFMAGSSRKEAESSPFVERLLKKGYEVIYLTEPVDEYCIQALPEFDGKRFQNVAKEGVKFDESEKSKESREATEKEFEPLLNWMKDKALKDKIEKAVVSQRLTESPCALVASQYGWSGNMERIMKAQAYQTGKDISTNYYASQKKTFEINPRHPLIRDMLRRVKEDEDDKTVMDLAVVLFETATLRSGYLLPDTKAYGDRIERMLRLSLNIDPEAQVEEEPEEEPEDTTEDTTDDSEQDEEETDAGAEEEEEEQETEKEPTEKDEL

Experiment [2] concerns the target T2, EMC6 (endogenous, mouse cortical homogenate) (mouse (endogenous in cortex of C57BL/6J mice)) (UniProt Q9CQW0).
T2 sequence: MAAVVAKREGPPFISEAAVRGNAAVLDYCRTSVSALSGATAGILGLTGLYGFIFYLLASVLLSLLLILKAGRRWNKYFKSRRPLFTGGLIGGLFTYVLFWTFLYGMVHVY
The description is as above.

Experiment [3] deals with T3, EMC3 (endogenous, rat cortical neurons) (rat (endogenous in primary cortical neurons)) (UniProt Q5U2V8).
T3 sequence: T1 sequence
The experiment is described as follows: co-IP; primary rat cortical neurons, lysate; endogenous EMC3 or EMC6 pulled down; western blot for NMDAR and nAChR subunits.

Experiment [4] deals with GABAA receptor α1 subunit (endogenous, rat cortical neurons) (rat (endogenous in primary cortical neurons)) (UniProt P62813). Put plainly: co-IP; primary rat cortical neurons at DIV 12, lysate; immunoprecipitation of endogenous α1 with mouse anti-α1 antibody and protein A/G plus-agarose beads, 4°C; western blot; IgG as negative control.

Results are given in words; binding and its absence hold for the method and conditions named. In cells and extracts the contact can be indirect. Some entries that bind do so weakly or less than the wild type.

Results on nine molecules are retold here after article PMC9352529.

As to “nicotinic acetylcholine receptor α7 subunit (endogenous, mouse cortical homogenate) (from UniProt P49582 23-502)”, the binding result in experiment [1] and in experiment [2] was “binds” each time.
On to “NMDA receptor NR2A subunit (endogenous, rat cortical neurons) (from UniProt Q00959 23-1464)”, for which the binding entry in experiment [3] is given as “binds”.
For “NMDA receptor NR2B subunit (endogenous, rat cortical neurons) (from UniProt Q00960 27-1482)”, the binding entry in experiment [3] is “binds”.
In the case of “VCP (endogenous, rat cortical neurons) (from UniProt P46462 1-806)”, in experiment [4], the binding result is given as “binds”.
Turning to “NMDA receptor NR1 subunit (endogenous, rat cortical neurons) (from UniProt P35439 19-938)”, the binding entry in experiment [3] was “binds”.
On to “nicotinic acetylcholine receptor α7 subunit (endogenous, rat cortical neurons) (from UniProt Q05941 23-502)”, for which the binding entry in experiment [3] was “binds”.
“Grp94 (endogenous, rat cortical neurons) (from UniProt Q66HD0 22-804)”: the binding result in experiment [4] is listed as “binds”.

B1: calnexin (endogenous, rat cortical neurons) (protein, UniProt P35565 21-591)
chain: HDGHDDDMIDIEDDLDDVIEEVEDSKSKSDTSTPPSPKVTYKAPVPTGEVYFADSFDRGSLSGWILSKAKKDDTDDEIAKYDGKWEVDEMKETKLPGDKGLVLMSRAKHHAISAKLNKPFLFDTKPLIVQYEVNFQNGIECGGAYVKLLSKTSELNLDQFHDKTPYTIMFGPDKCGEDYKLHFIFRHKNPKTGVYEEKHAKRPDADLKTYFTDKKTHLYTLILNPDNSFEILVDQSVVNSGNLLNDMTPPVNPSREIEDPEDRKPEDWDERPKIADPDAVKPDDWDEDAPSKIPDEEATKPEGWLDDEPEYIPDPDAEKPEDWDEDMDGEWEAPQIANPKCESAPGCGVWQRPMIDNPNYKGKWKPPMIDNPNYQGIWKPRKIPNPDFFEDLEPFRMTPFSAIGLELWSMTSDIFFDNFIISGDRRVVDDWANDGWGLKKAADGAAEPGVVGQMLEAAEERPWLWVVYILTVALPVFLVILFCCSGKKQSNAMEYKKTDAPQPDVKDEEGKEEEKNKGDEEEEEEKLEEKQKSDAEEDGGTGSQDEEDSKPKAEEDEILNRSPRNRKPRRE
As for B1, the binding result in experiment [4] is on record as “binds”.

B2: EMC3 (endogenous, rat cortical neurons) (protein, UniProt Q5U2V8 1-261)
chain: T1 sequence
Take B2: in experiment [4], the binding result was “binds”.
